Literature values in patent publication US9790351B2, “Fat-binding compositions” (Eastpond Laboratories Limited, priority 2010, dated 2017).
For at least one compound, name, drawing or mass did not settle the structure.

How the values were obtained:
[1] = cited from earlier work
[2] = cited from earlier work; remark: listed apart in the source
[3] = cited from earlier work; remark: listed apart in the source

OC[C@H]1O[C@@H]2O[C@H]3[C@H](O)[C@@H](O)[C@@H](O[C@H]4[C@H](O)[C@@H](O)[C@@H](O[C@H]5[C@H](O)[C@@H](O)[C@@H](O[C@H]6[C@H](O)[C@@H](O)[C@@H](O[C@H]7[C@H](O)[C@@H](O)[C@@H](O[C@H]8[C@H](O)[C@@H](O)[C@@H](O[C@H]9[C@H](O)[C@@H](O)[C@@H](O[C@H]1[C@H](O)[C@H]2O)O[C@@H]9CO)O[C@@H]8CO)O[C@@H]7CO)O[C@@H]6CO)O[C@@H]5CO)O[C@@H]4CO)O[C@@H]3CO [gamma-cyclodextrin]
significantly bind: binding of cholesterol [1] | binding of oleic acid [2] | binding of triolein [3]
